# Test results published in article PMC10247366.
# Protein sequences, listed by entry. Tags and fused reporters are not part of them.
# UniProt Q86VR2: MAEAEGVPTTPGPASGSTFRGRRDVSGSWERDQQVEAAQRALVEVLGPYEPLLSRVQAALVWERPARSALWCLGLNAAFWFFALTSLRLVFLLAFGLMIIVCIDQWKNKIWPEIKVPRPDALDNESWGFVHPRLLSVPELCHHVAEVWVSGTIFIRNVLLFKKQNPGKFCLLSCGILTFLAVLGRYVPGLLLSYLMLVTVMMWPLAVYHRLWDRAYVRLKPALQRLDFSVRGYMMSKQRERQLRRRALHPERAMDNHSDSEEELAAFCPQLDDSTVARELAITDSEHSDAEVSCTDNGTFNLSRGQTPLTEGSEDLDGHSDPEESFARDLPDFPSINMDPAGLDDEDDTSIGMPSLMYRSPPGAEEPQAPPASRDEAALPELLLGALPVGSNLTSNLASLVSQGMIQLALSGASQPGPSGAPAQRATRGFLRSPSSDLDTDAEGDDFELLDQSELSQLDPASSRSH
# UniProt Q9H6L5: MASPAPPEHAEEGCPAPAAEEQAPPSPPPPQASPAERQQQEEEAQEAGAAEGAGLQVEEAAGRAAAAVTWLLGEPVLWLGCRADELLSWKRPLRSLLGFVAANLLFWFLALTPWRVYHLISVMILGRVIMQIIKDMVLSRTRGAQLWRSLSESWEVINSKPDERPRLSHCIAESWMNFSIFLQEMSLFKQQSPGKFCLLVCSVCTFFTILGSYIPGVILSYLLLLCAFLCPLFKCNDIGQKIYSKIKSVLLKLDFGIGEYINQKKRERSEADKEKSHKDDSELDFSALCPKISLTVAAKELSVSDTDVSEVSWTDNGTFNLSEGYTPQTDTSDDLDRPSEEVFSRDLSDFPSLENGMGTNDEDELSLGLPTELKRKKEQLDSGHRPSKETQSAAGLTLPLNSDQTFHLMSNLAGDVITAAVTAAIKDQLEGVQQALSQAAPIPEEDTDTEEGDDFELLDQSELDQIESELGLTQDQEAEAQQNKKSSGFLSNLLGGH
# UniProt Q15041: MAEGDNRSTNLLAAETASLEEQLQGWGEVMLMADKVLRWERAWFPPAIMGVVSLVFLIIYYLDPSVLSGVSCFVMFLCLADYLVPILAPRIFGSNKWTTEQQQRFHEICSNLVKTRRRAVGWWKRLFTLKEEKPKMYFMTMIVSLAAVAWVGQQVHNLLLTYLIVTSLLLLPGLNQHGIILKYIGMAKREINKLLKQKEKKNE
# UniProt Q96CV9: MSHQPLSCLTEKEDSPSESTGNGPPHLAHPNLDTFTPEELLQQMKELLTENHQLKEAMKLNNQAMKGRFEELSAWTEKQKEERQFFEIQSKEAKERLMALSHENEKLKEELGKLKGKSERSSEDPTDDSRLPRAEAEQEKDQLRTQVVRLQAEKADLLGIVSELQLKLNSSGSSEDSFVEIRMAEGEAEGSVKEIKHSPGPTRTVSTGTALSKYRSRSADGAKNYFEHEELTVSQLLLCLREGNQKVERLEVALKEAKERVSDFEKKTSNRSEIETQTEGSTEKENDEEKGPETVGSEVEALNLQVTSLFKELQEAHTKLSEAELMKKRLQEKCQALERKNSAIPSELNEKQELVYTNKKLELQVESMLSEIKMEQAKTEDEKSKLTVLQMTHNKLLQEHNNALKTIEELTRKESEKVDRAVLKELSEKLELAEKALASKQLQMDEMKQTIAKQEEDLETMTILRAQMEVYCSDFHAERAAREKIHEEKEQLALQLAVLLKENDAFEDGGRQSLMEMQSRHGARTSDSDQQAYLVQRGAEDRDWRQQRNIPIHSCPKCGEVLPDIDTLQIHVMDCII
# These are yes or no findings as the source states them, for the method shown. Binding seen in cells or lysates may run through a third protein. Here binding means that the protein was enriched with, or labelled near, the bait; the list need not be complete. For part of these data: A no says only that the protein was not detected with the bait.
# Target: V1–FAM134C WT and V2–FAM134C WT (UniProt Q86VR2)
# Assay: affinity purification with mass spectrometry; BiCAP: HEK 293T co-transfected with V1- and V2-tagged proteins for 16 h, lysis with 1% Triton X-100 (50 mM Tris-HCl pH 7.5, 150 mM NaCl, 0.5 mM EDTA), refolded Venus captured on GFP-trap beads overnight at 4 °C, on-bead trypsin digestion, label-free LC–MS; hits log2 enrichment >= 2, P <= 0.05
row,Substance,binding
1,V1–FAM134C WT and V2–FAM134C WT (from UniProt Q86VR2 1-466),binds

# Target: V1–FAM134B and V2–FAM134B (WT) (UniProt Q9H6L5)
# Assay: as above
row,Substance,binding
1,ARL6IP1 (from UniProt Q15041 1-203),binds
2,OPTN (from UniProt Q96CV9 1-577),no binding
3,V1–FAM134B and V2–FAM134B (WT) (from UniProt Q9H6L5 1-497),binds
4,V1–FAM134C WT and V2–FAM134C WT (from UniProt Q86VR2 1-466),binds
5,p62 (from UniProt Q13501 1-440),no binding
